Assay results taken from the supplement of paper PMC4862054.
Small differences around the control level are noise.

What was measured:
Assay in all cases: normalised response (% of control), CellTox Green; higher = less cell death (100 = DMSO, 0 = benzethonium chloride kill control)
Settings in all cases: incubation time: 72 h
BT-474 = tested on: BT-474
Procedure: (§1)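 DSRT, 72 h incubation, CellTox Green / CellTiter-Glo readout. Signal is normalised to DMSO and benzethonium chloride controls. Value is the normalised response at dose 2.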

BT-549 = tested on: BT-549
Procedure: as §1

CAL-120 = tested on: CAL-120
Procedure: as §1

CAL-148 = tested on: CAL-148
Procedure: as §1

CAL-51 = tested on: CAL-51
Procedure: as §1

CAL-85-1 = tested on: CAL-85-1
Procedure: as §1

DU-4475 = tested on: DU-4475
Procedure: as §1

HCC1143 = tested on: HCC1143
Procedure: as §1

HCC1599 = tested on: HCC1599
Procedure: as §1

HCC1937 = tested on: HCC1937
Procedure: as §1

HDQ-P1 = tested on: HDQ-P1
Procedure: as §1

Hs578T = tested on: Hs578T
Procedure: as §1

MCF-10A = tested on: MCF-10A
Procedure: as §1

MDA-MB-231 = tested on: MDA-MB-231
Procedure: as §1

MDA-MB-436 = tested on: MDA-MB-436
Procedure: as §1

MDA-MB-453 = tested on: MDA-MB-453
Procedure: as §1

MDA-MB-468 = tested on: MDA-MB-468
Procedure: as §1

MFM-223 = tested on: MFM-223
Procedure: as §1

SMILES | normalised response (BT-474) [%] | normalised response (BT-549) [%] | normalised response (CAL-120) [%] | normalised response (CAL-148) [%] | normalised response (CAL-51) [%] | normalised response (CAL-85-1) [%] | normalised response (DU-4475) [%] | normalised response (HCC1143) [%] | normalised response (HCC1599) [%] | normalised response (HCC1937) [%] | normalised response (HDQ-P1) [%] | normalised response (Hs578T) [%] | normalised response (MCF-10A) [%] | normalised response (MDA-MB-231) [%] | normalised response (MDA-MB-436) [%] | normalised response (MDA-MB-453) [%] | normalised response (MDA-MB-468) [%] | normalised response (MFM-223) [%]
CC(=O)OC[C@H]1O[C@@H]([S-])[C@H](OC(C)=O)[C@@H](OC(C)=O)[C@@H]1OC(C)=O.CCP(CC)CC.[Au+] [Auranofin] (2.5 nM) | 107 | 109 | 101 | 63 | 116 | 109 | 108 | 108 | 120 | 119 | 95.4 | 125 | 109 | 122 | 91.5 | 109 | 121 | 107
CC[C@@H]1C(=O)N(C)c2cnc(Nc3ccc(C(=O)NC4CCN(C)CC4)cc3OC)nc2N1C1CCCC1 [BI 2536] (1 nM) | 101 | 98.9 | 101 | 106 | 110 | 90.6 | 105 | 117 | 113 | 114 | 118 | 124 | 99.1 | 104 | 103 | 106 | 95.9 | 98.8
C[C@@H]1C=C2C(=O)O[C@@H]3CC[C@H](C1)[C@]23O [Galiellalactone] (50 nM) | 103 | 109 | 102 | 91.9 | 91.8 | 94.9 | 118 | 123 | 121 | 111 | 118 | 57.6 | 104 | 111 | 97.7 | 108 | 92.6 | 103
Cc1cc(Nc2cc(CN3CCOCC3)c3nc(C)c(Cc4ccc(Cl)cc4F)n3n2)n[nH]1 [Gandotinib] (10 nM) | 100 | 99.8 | 103 | 102 | 104 | 93.4 | 108 | 121 | 113 | 77.5 | 127 | 123 | 108 | 101 | 114 | 105 | 70.3 | 101
NC(=O)NO [Hydroxyurea] (100 nM) | 102 | 84.9 | 100 | 104 | 105 | 105 | 96.3 | 83.8 | 99.5 | 70.5 | 115 | 104 | 107 | 114 | 105 | 97 | 111 | 104
COc1ccccc1S(=O)(=O)Nc1ccc2c(c1)CN(C)C(=O)N2 [PFI-1] (10 nM) | 87 | 115 | 104 | 112 | 112 | 110 | 111 | 116 | 119 | 135 | 107 | 70.4 | 107 | 123 | 101 | 90.5 | 127 | 106
CC/C(=C(\c1ccccc1)c1ccc(OCCN(C)C)cc1)c1ccccc1 [Tamoxifen] (10 nM) | 105 | 108 | 102 | 111 | 90.5 | 99.7 | 104 | 108 | 91.7 | 62.7 | 117 | 95.3 | 74.4 | 121 | 110 | 99.8 | 119 | 101
Nc1nc2[nH]cnc2c(=S)[nH]1 [Thioguanine] (10 nM) | 104 | 106 | 102 | 108 | 95.6 | 104 | 93.5 | 108 | 89.4 | 91.3 | 108 | 116 | 85 | 88.6 | 87.8 | 97.7 | 105 | 93
